Data as given in PubChem BioAssay AID686943 (Drosophila RNAi Screening Center, 2013)

Purpose: 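Fly genes whose loss alters ERK activation after insulin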 (primary screen)
Cells: Drosophila S2R+ haemocyte-like cells expressing YFP-tagged ERK (Rolled)
Reagent: long dsRNA against Drosophila genes
Conditions: insulin stimulation versus unstimulated cells; dose and duration not given
Measurement: 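Per-plate z-scores of phospho-ERK immunostaining normalised to YFP-tagged ERK, measured with and without insulin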
Reading the numbers: replicate 1, z-score of dpERK with insulin: higher = more active ERK per ERK-YFP after insulin
The screen tested about 23,000 reagents; below is an unselected part of those that have a named target and a result. 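Extra replicates exist only for a retested subset of genes; insulin dose and duration not given; both raised and lowered dpERK matter.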 Further read-outs or replicates are left out here. No sequences are given here. Not stated in the record: the amount of reagent, the time to read-out.

For NANS [DRSC15743], how do the results read?
replicate 1, z-score of dpERK with insulin: -0.22

What did the screen give for mRpL39 [DRSC10255]?
replicate 1, z-score of dpERK with insulin: 0.03

With CG1628 [DRSC18109], what was measured?
replicate 1, z-score of dpERK with insulin: 0.47

How did the screen score CG6937 [DRSC16140]?
replicate 1, z-score of dpERK with insulin: -0.25

Which result is listed for tbrd-1 [DRSC14601]?
replicate 1, z-score of dpERK with insulin: 0.45

What did the screen give for RSG7 [DRSC20274]?
replicate 1, z-score of dpERK with insulin: 1.69

For RSG7 [DRSC22852], what was measured?
replicate 1, z-score of dpERK with insulin: 0.54

Which result is listed for CG30109 [DRSC05675]?
replicate 1, z-score of dpERK with insulin: 0.04

For Syn [DRSC16876], what does the deposit list?
replicate 1, z-score of dpERK with insulin: -0.51

For Prosalpha6 [DRSC03401], how do the results read?
replicate 1, z-score of dpERK with insulin: -2.42

How did the screen score sowi [DRSC12558]?
replicate 1, z-score of dpERK with insulin: -0.19

For CG43095 [DRSC13573], what does the deposit list?
replicate 1, z-score of dpERK with insulin: -1.54

Already shown: an excerpt of the list.
RSG7 [DRSC22852]: replicate 1, z-score of dpERK with insulin = 0.54
CG30109 [DRSC05675]: replicate 1, z-score of dpERK with insulin = 0.04
